Results published in the supplement of paper PMC12067093, “Discovery and optimisation of a covalent ligand for TRIM25 and its application to targeted protein ubiquitination” (Chemical Science, 2025).
Some of the results follow.

By UniProt entry, the sequences of proteins in these tests, tags left out. Where a name states a change or a piece, a line headed by the entry shows the natural chain unless it says otherwise.
UniProt Q8NF37: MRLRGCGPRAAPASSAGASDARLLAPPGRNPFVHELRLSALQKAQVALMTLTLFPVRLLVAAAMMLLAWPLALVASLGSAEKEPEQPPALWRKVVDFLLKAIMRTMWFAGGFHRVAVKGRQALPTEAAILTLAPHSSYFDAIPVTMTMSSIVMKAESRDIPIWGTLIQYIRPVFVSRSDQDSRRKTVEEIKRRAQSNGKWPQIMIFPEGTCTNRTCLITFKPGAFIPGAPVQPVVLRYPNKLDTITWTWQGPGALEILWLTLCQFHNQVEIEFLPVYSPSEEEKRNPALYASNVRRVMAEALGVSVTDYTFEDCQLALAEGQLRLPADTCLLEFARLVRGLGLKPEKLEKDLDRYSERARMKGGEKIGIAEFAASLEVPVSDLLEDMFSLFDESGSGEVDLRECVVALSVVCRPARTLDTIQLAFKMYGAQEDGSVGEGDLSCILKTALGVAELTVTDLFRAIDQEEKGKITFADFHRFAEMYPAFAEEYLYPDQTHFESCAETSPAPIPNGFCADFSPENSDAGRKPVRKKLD
UniProt Q96II8: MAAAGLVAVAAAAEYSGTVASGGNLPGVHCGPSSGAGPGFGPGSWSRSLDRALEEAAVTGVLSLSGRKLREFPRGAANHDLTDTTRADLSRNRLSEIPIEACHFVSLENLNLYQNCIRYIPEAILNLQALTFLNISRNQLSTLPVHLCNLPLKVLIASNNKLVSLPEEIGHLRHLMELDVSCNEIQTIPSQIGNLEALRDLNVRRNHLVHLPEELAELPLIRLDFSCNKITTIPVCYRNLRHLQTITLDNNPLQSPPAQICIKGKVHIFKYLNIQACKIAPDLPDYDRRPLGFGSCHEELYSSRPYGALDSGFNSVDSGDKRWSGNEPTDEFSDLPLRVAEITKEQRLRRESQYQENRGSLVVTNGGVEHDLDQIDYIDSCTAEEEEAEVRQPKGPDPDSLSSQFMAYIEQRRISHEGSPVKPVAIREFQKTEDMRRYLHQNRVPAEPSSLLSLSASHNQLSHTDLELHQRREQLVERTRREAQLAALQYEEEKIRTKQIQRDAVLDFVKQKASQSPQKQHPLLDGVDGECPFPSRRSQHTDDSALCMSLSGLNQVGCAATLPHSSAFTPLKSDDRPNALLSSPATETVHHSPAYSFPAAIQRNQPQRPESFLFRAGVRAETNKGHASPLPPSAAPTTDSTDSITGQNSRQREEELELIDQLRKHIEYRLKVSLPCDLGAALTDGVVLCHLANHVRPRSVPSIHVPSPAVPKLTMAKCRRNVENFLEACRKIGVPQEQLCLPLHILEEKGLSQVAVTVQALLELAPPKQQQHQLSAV
UniProt Q9Y2L9: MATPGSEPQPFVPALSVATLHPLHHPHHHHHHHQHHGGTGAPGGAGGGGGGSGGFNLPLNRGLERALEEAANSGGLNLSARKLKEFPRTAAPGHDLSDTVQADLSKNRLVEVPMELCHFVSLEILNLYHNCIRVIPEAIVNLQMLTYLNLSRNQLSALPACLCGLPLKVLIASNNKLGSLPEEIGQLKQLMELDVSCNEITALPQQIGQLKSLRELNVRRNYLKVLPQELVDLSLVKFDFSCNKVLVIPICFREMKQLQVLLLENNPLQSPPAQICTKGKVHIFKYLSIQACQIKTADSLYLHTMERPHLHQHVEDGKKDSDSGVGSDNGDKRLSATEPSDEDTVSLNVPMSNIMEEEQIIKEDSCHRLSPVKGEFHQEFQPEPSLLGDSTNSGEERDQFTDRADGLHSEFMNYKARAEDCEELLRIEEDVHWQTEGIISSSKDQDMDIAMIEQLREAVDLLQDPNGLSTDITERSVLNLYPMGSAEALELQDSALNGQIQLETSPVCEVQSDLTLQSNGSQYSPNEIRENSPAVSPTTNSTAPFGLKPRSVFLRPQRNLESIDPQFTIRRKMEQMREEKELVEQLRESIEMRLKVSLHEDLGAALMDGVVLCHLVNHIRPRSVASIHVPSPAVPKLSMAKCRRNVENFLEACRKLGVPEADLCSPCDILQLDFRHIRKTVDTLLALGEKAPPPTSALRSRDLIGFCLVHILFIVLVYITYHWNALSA
UniProt O75427: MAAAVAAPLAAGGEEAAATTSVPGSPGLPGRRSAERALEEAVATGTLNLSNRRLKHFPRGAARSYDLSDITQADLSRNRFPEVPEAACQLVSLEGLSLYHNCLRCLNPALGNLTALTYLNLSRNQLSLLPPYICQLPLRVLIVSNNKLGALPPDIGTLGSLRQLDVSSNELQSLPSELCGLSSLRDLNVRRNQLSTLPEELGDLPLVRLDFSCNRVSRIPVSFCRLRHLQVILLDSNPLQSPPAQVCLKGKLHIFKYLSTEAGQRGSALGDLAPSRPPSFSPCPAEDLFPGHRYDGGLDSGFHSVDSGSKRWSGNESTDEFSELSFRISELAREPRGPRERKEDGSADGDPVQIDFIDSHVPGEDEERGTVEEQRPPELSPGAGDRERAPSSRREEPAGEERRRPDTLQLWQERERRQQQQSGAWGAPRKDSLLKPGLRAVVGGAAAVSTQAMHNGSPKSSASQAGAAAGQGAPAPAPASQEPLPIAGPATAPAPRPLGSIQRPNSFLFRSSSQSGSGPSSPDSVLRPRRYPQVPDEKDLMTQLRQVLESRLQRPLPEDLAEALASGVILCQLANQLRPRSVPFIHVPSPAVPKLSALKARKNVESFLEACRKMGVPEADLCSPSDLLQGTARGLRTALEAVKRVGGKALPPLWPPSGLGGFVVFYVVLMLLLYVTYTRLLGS

Compound: Cc1cc(ccc1-c1ccccc1)C(=O)N1CCCN(CC1)C(=O)CCl [compound 10]
Assay: probe-labelled cysteine peptide fold change vs DMSO (competition) (log2 fold change); higher = less target engagement (more negative = stronger competition)
Conditions: THP-1, incubation time: 4 h
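Note: competitive profiling in live THP-1 cells: cysteine peptides tagged with an iodoacetamide desthiobiotin (IA-DTB) probe, intensity after compound treatment relative to DMSO-treated cells.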

Row | Target | probe-labelled cysteine peptide fold change (10 µM) | probe-labelled cysteine peptide fold change (50 µM)
1 | LPCAT1_Q8NF37_211_WPQIMIFPEGTCTNR (UniProt Q8NF37) | 0.0371 | -0.0848
2 | LRCH3_Q96II8_148_NQLSTLPVHLCNLPLK (UniProt Q96II8) | 0.138 | 0.0632
3 | LRCH1_Q9Y2L9_613_VSLHEDLGAALMDGVVLCHLVNHIRPR (UniProt Q9Y2L9) | 0.128 | -0.0555
4 | LRCH4_O75427_88_NRFPEVPEAACQLVSLEGLSLYHNCLR (UniProt O75427) | 0.0451 | -0.293
